Measured values: publication doi:10.1101/2022.05.03.490397
No constants are given. Whether binding was seen depends on the method and setting. In cells and extracts the contact can be indirect.

B1: ThsA of the Bacillus cereus MSX-D12 Thoeris system (enzyme, UniProt J8G6Z1 1-476)
chain: MKMNPIVELFIKDFTKEVMEENAAIFAGAGLSMSVGYVSWAKLLEPIAQEIGLDVNKENDLVSLAQYYCNENQGNRGRINQIILDEFSRKVDLTENHKILARLPIHTYWTTNYDRLIEKALEEENKIADVKYTVKQLATTKVKRDAVVYKMHGDVEHPSEAVLIKDDYEKYSIKMDPYIKALSGDLVSKTFLFVGFSFTDPNLDYILSRVRSAYERDQRRHYCLIKKEERRPDELEADFEYRVRKQELFISDLSRFNIKTIVLNNYNEITEILQRIENNIKTKTVFLSGSAVEYNHWETEHAEQFIHQLSKELIRKDFNIVSGFGLGVGSFVINGVLEELYMNQGTIDDDRLILRPFPQGKKGEEQWDKYRRDMITRTGVSIFLYGNKIDKGQVVKAKGVQSEFNISFEQNNYVVPVGATGYIAKDLWNKVNEEFETYYPGADARMKKLFGELNNEALSIEELINTIIEFVEILSN
B2: ThsB (TIR-domain protein) of the Bacillus cereus MSX-D12 Thoeris system (protein, UniProt J8G8J6 1-192)
chain: MAKRVFFSFHYQDVIDFRVNVVRNHWVTKLNQSAAGVFDASLWEDAKKTSDIALKRLINGGLNNTSVTCVLIGSQTFNRRWVRYEIMKSIEKGNKIIGIHINAFKDKYGNIKSKGPNPFDYLGYQYSSDGKQLHLYEWTGGKWEEYKDLAPYRVNQIAPESLRGKFYSLSSVYRVYDWVADDGYNKFSSWVN

Biological target: Thoeris anti-defense 1 (Tad1) from B. subtilis phage SBSphiJ7, C-terminal 8xHis-tag (Bacillus subtilis phage SBSphiJ7)
Assay: pull-down

Binder | binding
B1 | no binding
B2 | no binding
